Data taken from patent US20060210977.
For at least one entry, the source does not settle the construct or the ends of the probe. Where a protein sequence is shown, tags need not be part of it.

Target: T1, Leu3p DNA binding domain (Saccharomyces cerevisiae) (UniProt P08638)
T1 sequence (looked up): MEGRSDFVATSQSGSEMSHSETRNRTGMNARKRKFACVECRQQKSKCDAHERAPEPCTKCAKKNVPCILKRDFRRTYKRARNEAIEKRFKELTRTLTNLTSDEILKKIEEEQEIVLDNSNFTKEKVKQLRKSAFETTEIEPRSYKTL
Assay: binding assay
Conditions: CITED Hellauer et al. 1996; binds in vitro; purified recombinant protein

“TCCGGCCGGAACCGGCTTT (double strand) [Leu3p target DNA]”: binds.
